Experimental data published in patent US4235886A, “Cyclic hexapeptide somatostatin analogs” (Merck & Co., Inc., priority 1979, dated 1980).
At least one peptide structure holds a part that was inferred or is arguable (an end, a ring closure or a residue). Non-standard residues stand in square brackets, D forms with d. Residues, ends and D or L forms follow the SMILES beside them. Phe(4-Cl) = N[C@@H](Cc1ccc(Cl)cc1)C(=O)O

Key:
[1] = system: pentagastrin evoked gastric secretion in the chronic fistula dog; experiment: Inhibition of pentagastrin evoked gastric secretion in the chronic fistula dog; type: in vivo; settings: dose 0.8 μg/ml./min., infusion 0-60 min, pentagastrin 2.5 μg./kg./hour i.v., relative to placebo trial
Procedure: The effects of the instant cyclichexapeptide analogs of somatostatin are determined by the following procedure.
Compounds were tested for their ability to inhibit pentagastrin evoked gastric secretion in the chronic fistula dog. Female beagle dogs with a chronic gastric fistula were given pentagastrin (2.5 μg./kg./hour, i.v. from -60 to 120 min.) and gastric outputs were collected via the fistula cannula. Samples were analyzed at 30 minute intervals for volume (ml.) and titratable acid (mEq/L) (Titration to pH 7 with 0.01 N NaOH); total acid output (mEq) was calculated as the production of output volume and acid concentration. Test compounds were infused at a constant rate from 0 to 60 minutes. Data have been expressed as percent change of total acid output relative to a placebo trial in the same animals.

[2] = system: Rat pituitaries (growth hormone release); experiment: In vitro inhibition of growth hormone release from cultured rat pituitary cells; type: cell-based; settings: multiples or fractions of the effect of somatostatin (= 1), fiducial limits in parentheses, 4 hours incubation, radioimmunoassay
Procedure: The instant cyclic hexapeptide analogs of somatostatin are tested and compared with the effects of somatostatin in an in vitro test for the inhibition of growth hormone. The test is described as follows:
"Rat pituitaries were isolated according to the procedures of Vale and Grant "In vitro Pituitary Hormone Secretion Assay for Hypophysiotropic Substances" in Methods in Enzymology. Vol. XXXVII, eds. O'Malley, B. W. and Hardman, J. G. (Academic Press, Inc., New York) pp. 5-93 (1975).
After 4 days in culture, the cells were washed and incubated for 4 hours in Dulbecco-modified Eagle's medium in the presence or absence of graded doses of each analog or somatostatin. The medium was then collected for subsequent growth hormone determination by a double antibody radioimmunoassay for rat growth hormone."
The test results for some of the compounds of this invention are recorded below with the results for somatostatin listed first and given the arbitrary value of 1. The results for the instant compounds are given as multiples or fractions of the effect of somatostatin. The numbers in parentheses are the fiducial limits for the number preceding. The first of the instant compounds listed is the compound prepared in Example 1-5. The compound is written slightly different, however, to conform to the order of the amino acids found in somatostatin.

Row | Structure (SMILES) | Gastric Secretion % Inhibition, Vol., 30-60 ([1]; volume, 30-60 min) | Gastric Secretion % Inhibition, Acid Concentration, 0-30 ([1]; acid concentration, 0-30 min) | Gastric Secretion % Inhibition, Acid Concentration, 30-60 ([1]; acid concentration, 30-60 min) | Gastric Secretion % Inhibition, Acid Concentration, 60-90 ([1]; acid concentration, 60-90 min) | Gastric Secretion % Inhibition, Acid Concentration, 90-120 ([1]; acid concentration, 90-120 min) | Gastric Secretion % Inhibition, Vol., 0-30 ([1]; volume, 0-30 min) | Gastric Secretion % Inhibition, Vol., 60-90 ([1]; volume, 60-90 min) | Gastric Secretion % Inhibition, Vol., 90-120 ([1]; volume, 90-120 min) | Growth Hormone Release Inhibition In Vitro [2]
1 | C[C@@H](O)[C@@H]1NC(=O)[C@H](CCCCN)NC(=O)[C@@H](Cc2c[nH]c3ccccc23)NC(=O)[C@H](Cc2ccc(Cl)cc2)NC(=O)[C@@H]2CCCN2C(=O)[C@H](Cc2ccccc2)NC1=O [Cyclo(Pro-p-Cl-Phe-D-Trp-Lys-Thr-Phe)] (cyclo(FP[Phe(4-Cl)][dW]KT)) | 94% | – | – | – | – | – | – | – | –
2 | C[C@H](N)C(=O)NCC(=O)N[C@H]1CSSC[C@@H](C(=O)O)NC(=O)[C@H](CO)NC(=O)[C@H]([C@@H](C)O)NC(=O)[C@H](Cc2ccccc2)NC(=O)[C@H]([C@@H](C)O)NC(=O)[C@H](CCCCN)NC(=O)[C@H](Cc2c[nH]c3ccccc23)NC(=O)[C@H](Cc2ccccc2)NC(=O)[C@H](Cc2ccccc2)NC(=O)[C@H](CC(N)=O)NC(=O)[C@H](CCCCN)NC1=O [Somatostatin] | 97% | 16% | 77% | 61% | 14% | 85% | 81% | 37% | 1
